Results taken from the supplement of paper PMC10849652.
The list shows a part of the results.

Sequences of proteins named here, by UniProt entry; tags and fusion partners are left off. A change or cut given only in a name is not applied to a line headed by its entry.
UniProt Q13561, whole entry, looked up: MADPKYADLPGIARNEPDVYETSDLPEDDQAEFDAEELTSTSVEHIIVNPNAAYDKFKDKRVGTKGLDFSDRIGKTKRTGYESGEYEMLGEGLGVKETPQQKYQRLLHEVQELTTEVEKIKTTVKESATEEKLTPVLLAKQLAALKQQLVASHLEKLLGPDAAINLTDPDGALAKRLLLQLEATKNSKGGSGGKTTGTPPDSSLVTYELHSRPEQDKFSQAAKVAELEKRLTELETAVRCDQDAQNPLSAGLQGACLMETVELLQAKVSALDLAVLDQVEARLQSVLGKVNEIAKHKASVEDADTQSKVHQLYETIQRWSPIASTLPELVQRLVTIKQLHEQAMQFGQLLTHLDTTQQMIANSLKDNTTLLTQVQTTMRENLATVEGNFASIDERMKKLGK
UniProt Q58WW2: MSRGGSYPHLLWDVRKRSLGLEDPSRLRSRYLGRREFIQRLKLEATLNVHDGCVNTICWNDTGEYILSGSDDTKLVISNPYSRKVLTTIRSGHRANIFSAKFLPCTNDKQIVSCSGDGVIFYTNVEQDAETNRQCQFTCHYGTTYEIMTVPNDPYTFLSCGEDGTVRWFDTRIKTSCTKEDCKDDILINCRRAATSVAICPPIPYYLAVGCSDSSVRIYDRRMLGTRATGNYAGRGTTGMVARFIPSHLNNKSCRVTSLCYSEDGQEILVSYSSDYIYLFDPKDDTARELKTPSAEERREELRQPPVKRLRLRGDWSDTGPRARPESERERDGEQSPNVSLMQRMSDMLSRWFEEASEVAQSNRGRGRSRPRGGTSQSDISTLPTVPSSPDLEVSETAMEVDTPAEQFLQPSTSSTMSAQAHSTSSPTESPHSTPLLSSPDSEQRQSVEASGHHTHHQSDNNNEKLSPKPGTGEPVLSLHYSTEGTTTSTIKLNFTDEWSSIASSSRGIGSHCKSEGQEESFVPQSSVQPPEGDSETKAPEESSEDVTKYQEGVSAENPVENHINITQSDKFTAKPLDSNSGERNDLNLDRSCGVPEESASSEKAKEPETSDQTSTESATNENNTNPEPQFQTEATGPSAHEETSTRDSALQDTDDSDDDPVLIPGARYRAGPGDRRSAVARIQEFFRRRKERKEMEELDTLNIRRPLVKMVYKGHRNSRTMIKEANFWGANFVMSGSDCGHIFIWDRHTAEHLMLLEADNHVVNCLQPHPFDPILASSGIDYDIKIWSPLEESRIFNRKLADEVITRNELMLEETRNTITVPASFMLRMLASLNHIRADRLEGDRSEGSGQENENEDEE
UniProt Q13206, whole entry, looked up: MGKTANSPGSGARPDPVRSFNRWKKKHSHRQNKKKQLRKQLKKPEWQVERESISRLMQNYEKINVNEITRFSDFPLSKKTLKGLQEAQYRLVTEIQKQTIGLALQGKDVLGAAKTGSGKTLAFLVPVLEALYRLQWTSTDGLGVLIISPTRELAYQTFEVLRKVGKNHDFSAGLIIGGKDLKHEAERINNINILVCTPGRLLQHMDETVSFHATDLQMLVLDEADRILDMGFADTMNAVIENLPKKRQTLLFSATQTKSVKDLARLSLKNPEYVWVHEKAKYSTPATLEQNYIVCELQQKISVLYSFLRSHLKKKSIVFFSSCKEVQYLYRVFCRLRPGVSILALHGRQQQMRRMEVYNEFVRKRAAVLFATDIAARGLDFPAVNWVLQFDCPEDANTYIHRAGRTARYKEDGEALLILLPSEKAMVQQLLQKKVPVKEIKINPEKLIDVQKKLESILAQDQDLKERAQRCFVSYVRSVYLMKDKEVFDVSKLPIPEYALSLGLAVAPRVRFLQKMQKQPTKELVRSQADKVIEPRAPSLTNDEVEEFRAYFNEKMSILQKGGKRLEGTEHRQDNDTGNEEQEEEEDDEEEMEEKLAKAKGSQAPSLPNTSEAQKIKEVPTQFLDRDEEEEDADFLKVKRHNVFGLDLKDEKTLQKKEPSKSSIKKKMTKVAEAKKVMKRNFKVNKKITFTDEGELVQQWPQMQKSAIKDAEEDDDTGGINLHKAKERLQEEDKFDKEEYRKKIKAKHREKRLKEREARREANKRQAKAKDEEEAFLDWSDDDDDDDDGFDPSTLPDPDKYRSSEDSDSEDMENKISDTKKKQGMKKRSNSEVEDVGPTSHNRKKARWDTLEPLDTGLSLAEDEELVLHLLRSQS
UniProt Q9UJW0, whole entry, looked up: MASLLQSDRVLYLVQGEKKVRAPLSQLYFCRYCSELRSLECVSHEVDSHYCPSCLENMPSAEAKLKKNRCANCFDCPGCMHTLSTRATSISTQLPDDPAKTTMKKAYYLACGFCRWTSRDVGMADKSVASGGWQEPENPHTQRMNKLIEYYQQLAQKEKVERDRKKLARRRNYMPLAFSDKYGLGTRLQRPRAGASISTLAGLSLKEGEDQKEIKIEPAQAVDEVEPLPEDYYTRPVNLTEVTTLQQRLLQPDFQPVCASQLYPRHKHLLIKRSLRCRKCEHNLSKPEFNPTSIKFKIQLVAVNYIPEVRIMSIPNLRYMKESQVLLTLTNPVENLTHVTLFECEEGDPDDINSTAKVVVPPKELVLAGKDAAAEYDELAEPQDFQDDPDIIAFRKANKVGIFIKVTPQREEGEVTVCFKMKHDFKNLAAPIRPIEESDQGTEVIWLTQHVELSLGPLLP
UniProt Q9NXF7, whole entry, looked up: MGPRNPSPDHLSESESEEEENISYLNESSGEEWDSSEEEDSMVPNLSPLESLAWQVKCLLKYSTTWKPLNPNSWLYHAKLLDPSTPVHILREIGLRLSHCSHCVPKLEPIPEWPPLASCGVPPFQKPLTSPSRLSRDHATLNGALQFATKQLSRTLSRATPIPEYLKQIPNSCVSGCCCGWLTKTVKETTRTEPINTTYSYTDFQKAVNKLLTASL
UniProt P35659: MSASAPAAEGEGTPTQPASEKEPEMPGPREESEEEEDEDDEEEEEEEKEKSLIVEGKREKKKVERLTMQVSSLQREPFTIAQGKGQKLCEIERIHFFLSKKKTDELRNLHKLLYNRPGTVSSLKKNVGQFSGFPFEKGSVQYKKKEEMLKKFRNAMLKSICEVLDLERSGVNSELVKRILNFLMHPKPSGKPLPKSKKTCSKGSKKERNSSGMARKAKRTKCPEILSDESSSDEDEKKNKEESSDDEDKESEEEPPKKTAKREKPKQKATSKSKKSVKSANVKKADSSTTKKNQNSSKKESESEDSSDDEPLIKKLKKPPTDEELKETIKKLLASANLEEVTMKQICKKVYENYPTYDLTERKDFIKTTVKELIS
UniProt Q96HY6: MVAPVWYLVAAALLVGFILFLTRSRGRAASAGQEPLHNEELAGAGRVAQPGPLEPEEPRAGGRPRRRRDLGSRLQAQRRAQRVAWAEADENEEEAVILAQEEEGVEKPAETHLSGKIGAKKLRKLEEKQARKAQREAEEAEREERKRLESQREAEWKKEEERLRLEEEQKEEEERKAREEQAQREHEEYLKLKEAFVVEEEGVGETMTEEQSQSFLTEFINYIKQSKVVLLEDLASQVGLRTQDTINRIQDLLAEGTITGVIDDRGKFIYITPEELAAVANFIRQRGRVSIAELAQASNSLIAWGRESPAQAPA
UniProt Q7Z4W1: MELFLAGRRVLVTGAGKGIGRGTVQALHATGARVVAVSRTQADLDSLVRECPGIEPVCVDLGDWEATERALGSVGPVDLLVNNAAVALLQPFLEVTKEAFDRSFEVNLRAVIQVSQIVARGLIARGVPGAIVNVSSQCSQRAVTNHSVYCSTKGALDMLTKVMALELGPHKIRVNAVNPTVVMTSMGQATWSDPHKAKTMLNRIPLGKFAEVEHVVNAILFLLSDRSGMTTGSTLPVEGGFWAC
UniProt P26196: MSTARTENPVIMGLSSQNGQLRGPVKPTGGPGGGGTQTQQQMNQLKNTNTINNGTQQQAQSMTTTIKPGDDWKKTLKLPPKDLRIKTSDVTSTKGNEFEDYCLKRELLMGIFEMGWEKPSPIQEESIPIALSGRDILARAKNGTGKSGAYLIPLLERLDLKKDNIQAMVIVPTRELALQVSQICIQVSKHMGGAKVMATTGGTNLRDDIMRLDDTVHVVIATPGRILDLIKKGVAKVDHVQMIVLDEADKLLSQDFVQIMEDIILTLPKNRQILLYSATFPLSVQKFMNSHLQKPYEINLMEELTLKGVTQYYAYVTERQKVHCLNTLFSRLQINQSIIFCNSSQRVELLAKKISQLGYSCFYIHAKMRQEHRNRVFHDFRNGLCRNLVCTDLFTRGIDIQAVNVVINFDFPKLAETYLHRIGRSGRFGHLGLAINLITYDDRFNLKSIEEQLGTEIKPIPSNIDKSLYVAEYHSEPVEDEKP
UniProt Q07973: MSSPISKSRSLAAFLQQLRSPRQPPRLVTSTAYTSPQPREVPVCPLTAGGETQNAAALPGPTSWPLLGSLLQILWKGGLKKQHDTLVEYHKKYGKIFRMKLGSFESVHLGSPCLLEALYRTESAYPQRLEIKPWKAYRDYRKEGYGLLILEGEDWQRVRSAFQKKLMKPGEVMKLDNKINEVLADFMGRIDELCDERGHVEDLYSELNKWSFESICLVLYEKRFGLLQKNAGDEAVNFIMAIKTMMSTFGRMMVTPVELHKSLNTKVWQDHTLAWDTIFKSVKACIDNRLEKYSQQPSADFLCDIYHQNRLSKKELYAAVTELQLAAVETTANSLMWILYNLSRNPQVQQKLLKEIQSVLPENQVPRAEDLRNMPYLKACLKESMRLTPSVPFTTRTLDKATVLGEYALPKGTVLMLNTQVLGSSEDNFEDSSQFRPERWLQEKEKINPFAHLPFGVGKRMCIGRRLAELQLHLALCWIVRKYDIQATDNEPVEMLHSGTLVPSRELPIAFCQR
UniProt Q6P3S1: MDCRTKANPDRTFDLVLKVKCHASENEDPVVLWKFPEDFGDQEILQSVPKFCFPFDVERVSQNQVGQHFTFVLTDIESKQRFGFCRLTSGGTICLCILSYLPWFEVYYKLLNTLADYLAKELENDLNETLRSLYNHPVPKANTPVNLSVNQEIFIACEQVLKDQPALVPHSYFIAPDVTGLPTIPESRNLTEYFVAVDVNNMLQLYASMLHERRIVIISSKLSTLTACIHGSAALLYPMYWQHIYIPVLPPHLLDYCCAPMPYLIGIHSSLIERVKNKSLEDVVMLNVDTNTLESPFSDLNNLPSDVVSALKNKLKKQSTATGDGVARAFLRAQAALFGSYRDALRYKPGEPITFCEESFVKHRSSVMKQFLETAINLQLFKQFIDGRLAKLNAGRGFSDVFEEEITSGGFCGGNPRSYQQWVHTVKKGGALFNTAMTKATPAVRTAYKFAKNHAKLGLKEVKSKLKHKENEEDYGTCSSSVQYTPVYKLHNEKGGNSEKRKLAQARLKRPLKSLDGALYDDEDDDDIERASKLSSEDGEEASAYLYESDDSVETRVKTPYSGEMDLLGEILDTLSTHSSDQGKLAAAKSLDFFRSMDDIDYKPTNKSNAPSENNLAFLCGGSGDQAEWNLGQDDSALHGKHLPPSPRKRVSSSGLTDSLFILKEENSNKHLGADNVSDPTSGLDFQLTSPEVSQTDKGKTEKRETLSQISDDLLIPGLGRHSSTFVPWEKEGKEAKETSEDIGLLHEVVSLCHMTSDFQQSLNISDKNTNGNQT
UniProt Q9NY93: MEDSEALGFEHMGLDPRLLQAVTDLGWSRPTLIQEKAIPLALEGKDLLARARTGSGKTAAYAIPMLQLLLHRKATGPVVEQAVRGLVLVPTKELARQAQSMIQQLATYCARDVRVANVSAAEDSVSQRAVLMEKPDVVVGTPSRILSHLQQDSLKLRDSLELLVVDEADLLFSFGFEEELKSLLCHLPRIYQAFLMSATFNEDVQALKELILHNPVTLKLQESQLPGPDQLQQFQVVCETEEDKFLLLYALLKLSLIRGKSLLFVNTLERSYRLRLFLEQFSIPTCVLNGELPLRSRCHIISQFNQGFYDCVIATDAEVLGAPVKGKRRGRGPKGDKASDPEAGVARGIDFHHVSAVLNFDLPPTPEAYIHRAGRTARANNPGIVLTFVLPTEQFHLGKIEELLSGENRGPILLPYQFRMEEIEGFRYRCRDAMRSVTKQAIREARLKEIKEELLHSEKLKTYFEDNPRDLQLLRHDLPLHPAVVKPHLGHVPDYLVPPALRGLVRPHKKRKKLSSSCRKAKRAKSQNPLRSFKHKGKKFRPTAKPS
UniProt Q96GG9: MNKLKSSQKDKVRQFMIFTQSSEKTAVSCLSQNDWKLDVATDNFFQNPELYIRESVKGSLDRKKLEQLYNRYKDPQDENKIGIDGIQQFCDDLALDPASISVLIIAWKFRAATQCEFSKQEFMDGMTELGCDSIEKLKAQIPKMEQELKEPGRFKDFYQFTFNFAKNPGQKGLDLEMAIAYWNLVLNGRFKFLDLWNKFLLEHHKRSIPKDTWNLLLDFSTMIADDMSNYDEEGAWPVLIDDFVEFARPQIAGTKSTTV
UniProt P30046: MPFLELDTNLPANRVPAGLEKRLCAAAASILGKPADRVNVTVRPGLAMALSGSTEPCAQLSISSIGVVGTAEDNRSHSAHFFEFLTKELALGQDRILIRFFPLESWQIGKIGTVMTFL
UniProt P07108: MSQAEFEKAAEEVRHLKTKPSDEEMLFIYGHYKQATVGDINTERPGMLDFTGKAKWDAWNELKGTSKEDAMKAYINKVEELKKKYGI

Compound: Cc1sc2c(c1C)C(c1ccc(Cl)cc1)=N[C@@H](CC(=O)OC(C)(C)C)c1nnc(C)n1-2
Assay: log2 fold change, soluble protein after heating vs DMSO (PISA); higher = thermal stabilisation; K562 lysate, 10 uM; active = over 0.2 and 3.5 SD of the protein, either way, in both replicates (recomputed)
Summary of the method: (§1)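 Following dounce homogenisation of K562 pellets in PBS pH 7.4 with 1 mM MgCl2, crude extract at 1 mg/mL protein was incubated for 30 min with 10 μM compound. Aliquots were then heated for 3 min over 48°C-58°C and pooled, NP-40 was added to 0.5% at 4°C, and soluble protein was recovered as the supernatant at 21,000xg for 90 min. Channel-sum-equalised TMTpro 16plex LC-MS/MS quantified this protein. Each value, from duplicates, is a log-two fold change in thermal stability relative to solvent controls.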

Target | log2 fold change
DDX19A (UniProt Q9NUU7) | inactive: 0.004
DERPC (UniProt P0CG12) | inactive: -0.029
DCTN2 isoform 3 (UniProt Q13561) | inactive: -0.017
DERL1 (UniProt Q9BUN8) | inactive: -0.08
DCAF6 isoform 3 (UniProt Q58WW2) | inactive: -0.033
DFFA isoform 2 (UniProt O00273) | inactive: 0.196
DDX10 (UniProt Q13206) | inactive: -0.134
DDX59 (UniProt Q5T1V6) | inactive: 0.016
DCTPP1 (UniProt Q9H773) | inactive: -0.013
DCTN4 (UniProt Q9UJW0) | inactive: -0.055
DCTN3 (UniProt O75935) | inactive: 0.026
DDX1 (UniProt Q92499) | inactive: 0.04
DCAF16 (UniProt Q9NXF7) | inactive: -0.047
DEK (UniProt P35659) | inactive: 0.013
DCPS (UniProt Q96C86) | inactive: 0.008
DBR1 (UniProt Q9UK59) | inactive: -0.021
DCP2 (UniProt Q8IU60) | inactive: 0.026
DDX17 (UniProt Q92841) | inactive: 0.047
DDRGK1 (UniProt Q96HY6) | inactive: 0.027

Target | log2 fold change
DARS (UniProt P14868) | inactive: 0.043
DDX4 (UniProt Q9NQI0) | inactive: 0.049
DCXR (UniProt Q7Z4W1) | inactive: 0.007
DAP3 (UniProt P51398) | inactive: 0.025
DDX3X (UniProt O00571) | inactive: -0.021
DDX6 (UniProt P26196) | inactive: 0.012
CYP24A1 (UniProt Q07973) | inactive: -0.136
DENND1B (UniProt Q6P3S1) | inactive: -0.182
DCTD isoform 2 (UniProt P32321) | inactive: -0.006
DDX31 (UniProt Q9H8H2) | inactive: -0.014
DENR (UniProt O43583) | inactive: -0.011
DDX5 (UniProt P17844) | inactive: 0.063
DDX56 (UniProt Q9NY93) | inactive: -0.002
DCUN1D1 (UniProt Q96GG9) | inactive: 0.05
D2HGDH (UniProt Q8N465) | inactive: -0.058
DDX46, A0A0C4DG89 | inactive: 0.11
DDT (UniProt P30046) | inactive: 0.019
DBI isoform 5 (UniProt P07108) | inactive: -0.038
DCP1A (UniProt Q9NPI6) | inactive: 0.018

Compound: c1ccc([C@@H]2C[C@H]2NC2CCNCC2)cc1
Assay: as above
Summary of the method: as §1

Target | log2 fold change
DDX19A (UniProt Q9NUU7) | inactive: 0.016
DERPC (UniProt P0CG12) | inactive: 0.064
DCTN2 isoform 3 (UniProt Q13561) | inactive: -0.035
DEPDC5 (UniProt O75140) | inactive: 0
DERL1 (UniProt Q9BUN8) | inactive: -0.068
DCAF6 isoform 3 (UniProt Q58WW2) | inactive: -0.011
DFFA isoform 2 (UniProt O00273) | inactive: -0.021
DDX10 (UniProt Q13206) | inactive: 0.056
DDX59 (UniProt Q5T1V6) | inactive: 0.02
DCTPP1 (UniProt Q9H773) | inactive: 0.038
DCTN4 (UniProt Q9UJW0) | inactive: 0
DCTN3 (UniProt O75935) | inactive: 0.075
DDX1 (UniProt Q92499) | inactive: 0.023
DCAF16 (UniProt Q9NXF7) | inactive: 0.061
DEK (UniProt P35659) | inactive: 0.017
DCPS (UniProt Q96C86) | inactive: 0.02
DBR1 (UniProt Q9UK59) | inactive: -0.088
DCP2 (UniProt Q8IU60) | inactive: 0.048
DDX17 (UniProt Q92841) | inactive: -0.02
DDRGK1 (UniProt Q96HY6) | inactive: 0.031

Target | log2 fold change
DARS (UniProt P14868) | inactive: 0.025
DDX4 (UniProt Q9NQI0) | inactive: -0.265
DCXR (UniProt Q7Z4W1) | inactive: -0.041
DAP3 (UniProt P51398) | inactive: 0.046
DDX3X (UniProt O00571) | inactive: 0.004
DDX6 (UniProt P26196) | inactive: -0.015
CYP24A1 (UniProt Q07973) | inactive: -0.262
DENND1B (UniProt Q6P3S1) | inactive: 0.014
DCTD isoform 2 (UniProt P32321) | inactive: 0.025
DDX31 (UniProt Q9H8H2) | inactive: 0.018
DENR (UniProt O43583) | inactive: 0.018
DDX5 (UniProt P17844) | inactive: 0.032
DDX56 (UniProt Q9NY93) | inactive: 0.048
DCUN1D1 (UniProt Q96GG9) | inactive: -0.017
D2HGDH (UniProt Q8N465) | inactive: -0.035
DDX46, A0A0C4DG89 | inactive: 0.064
DDT (UniProt P30046) | inactive: -0.052
DBI isoform 5 (UniProt P07108) | inactive: 0.123
DCP1A (UniProt Q9NPI6) | inactive: -0.026
